Record: PubChem BioAssay AID504793 (Drosophila RNAi Screening Center, 2011)

- Purpose: 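Whole-genome screen for parts of the DNA damage checkpoint at G2/M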 (primary screen)
- Cell system: Drosophila S2R+ cells
- Reagents: long dsRNA against Drosophila genes, about 0.25 µg dsRNA per well
- Timing: 4 days of dsRNA, then 4 hours of drug before read-out
- Challenge: doxorubicin 0.5 µM for 4 hours to cause double-strand breaks, in cells also given a low, harmless dose of dsRNA against nbs to sensitise the assay
- Read-out: 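Per-well count of mitotic cells stained for phospho-histone H3 after doxorubicin exposure, used as mitotic index; counts are raw and not normalised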
- Direction: mitotic cells: higher = more cells in mitosis, weaker G2 arrest
- Rule for the call: 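Genes are called active only when high mitotic counts were reproduced with independent dsRNAs and mitosis was checked for delay without damage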
- Meaning of the calls: active = confirmed in follow-up tests; inactive = not confirmed
In all, the deposit lists about 23,000 reagents; below is an unselected part of those with a known target gene and a result. Of all reagents, 62 (0.27%) were called active. 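Calls come from follow-up tests whose scores are not deposited, so confirmed genes may have low counts here; counts are not normalised per plate.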 The raw values are shown without normalisation. Entries without a mark were called inactive. The numbers tell different reagents against one gene apart. Names joined by + are all predicted targets of the reagent.

With knock-down of ft (fat), the screen gave mitotic cells, replicate 1 = 5. Silencing of Kpc1 (Kip1 ubiquitination-promoting complex subunit 1) came out at: mitotic cells, replicate 1 = 6. Against CG11475 #1 the deposit lists mitotic cells, replicate 1 = 5. Knock-down of CG11475 #2 gave: mitotic cells, replicate 1 = 26. Silencing of Cndp2 (Cytosolic non-specific dipeptidase 2) gave: mitotic cells, replicate 1 = 4. Silencing of CG8745 #1 came out at: mitotic cells, replicate 1 = 5.

CG8745 #2 showed mitotic cells, replicate 1 = 3. With knock-down of CG8745 #3, the screen gave mitotic cells, replicate 1 = 10. After knock-down of CG13362 #1, the screen gave mitotic cells, replicate 1 = 10. With knock-down of CG13362 #2, the record shows mitotic cells, replicate 1 = 7. beat-IIIb (beaten path IIIb) showed mitotic cells, replicate 1 = 7. CG13226 gave mitotic cells, replicate 1 = 10.

Buffy showed mitotic cells, replicate 1 = 5. Depletion of GCS2beta (Glucosidase 2 beta subunit) #1 gave: mitotic cells, replicate 1 = 4. With knock-down of GCS2beta (Glucosidase 2 beta subunit) #2, the record shows mitotic cells, replicate 1 = 5. Silencing of Nil (Nilkantha) #1 gave: mitotic cells, replicate 1 = 7. Nil (Nilkantha) #2 gave mitotic cells, replicate 1 = 4. Knock-down of Esyt2 (Extended synaptotagmin-like protein 2) resulted in: mitotic cells, replicate 1 = 4.

For CG31064 #1, the values are mitotic cells, replicate 1 = 12. After knock-down of CG31064 #2, the screen gave mitotic cells, replicate 1 = 10. CG31064 #3 showed mitotic cells, replicate 1 = 7. With knock-down of CG31064 #4, the record shows mitotic cells, replicate 1 = 14. Knock-down of Ipo9 (Importin 9) gave: mitotic cells, replicate 1 = 11. With knock-down of spt4 the results were mitotic cells, replicate 1 = 6.

CG31910 + snoRNA:Me28S-G2743 (retired record) showed mitotic cells, replicate 1 = 6.

3 entries from above, arranged by “mitotic cells, replicate 1”, highest first:
CG13226 → mitotic cells, replicate 1: 10
Buffy → mitotic cells, replicate 1: 5
GCS2beta (Glucosidase 2 beta subunit) #1 → mitotic cells, replicate 1: 4

Additional results follow:
Depletion of Mad1 (Mitotic arrest-deficient 1) came out at: mitotic cells, replicate 1 = 5. Against CG14402, the values are mitotic cells, replicate 1 = 4. With knock-down of CG13501, the screen gave mitotic cells, replicate 1 = 3. Against bb8 (big bubble 8) the deposit lists mitotic cells, replicate 1 = 10. Against Rad1 + Sws1, the values are mitotic cells, replicate 1 = 5. CG8773 #1 showed mitotic cells, replicate 1 = 8.

With knock-down of CG8773 #2, the screen gave mitotic cells, replicate 1 = 11. Depletion of Acat2 (Acetyl-CoA acetyltransferase 2) gave: mitotic cells, replicate 1 = 10. CG32087 #1 showed mitotic cells, replicate 1 = 12. Depletion of CG32087 #2 resulted in: mitotic cells, replicate 1 = 5. CG14495 gave mitotic cells, replicate 1 = 13. After knock-down of PNPase (Polynucleotide phosphorylase), the screen gave mitotic cells, replicate 1 = 7.

CG13896 scored mitotic cells, replicate 1 = 3. Adgf-C (Adenosine deaminase-related growth factor C) #1 scored mitotic cells, replicate 1 = 6. Adgf-C (Adenosine deaminase-related growth factor C) #2 scored mitotic cells, replicate 1 = 14. CG8508 scored mitotic cells, replicate 1 = 4. With knock-down of CG17568 the results were mitotic cells, replicate 1 = 7; mitotic cells, replicate 2 = 14. CG30196 gave mitotic cells, replicate 1 = 2.
